Chains of the proteins cited; added tags and fusions are not shown. Lines headed by an entry give the natural chain unless they say otherwise; changes in a name come on top.
UniProt P18054: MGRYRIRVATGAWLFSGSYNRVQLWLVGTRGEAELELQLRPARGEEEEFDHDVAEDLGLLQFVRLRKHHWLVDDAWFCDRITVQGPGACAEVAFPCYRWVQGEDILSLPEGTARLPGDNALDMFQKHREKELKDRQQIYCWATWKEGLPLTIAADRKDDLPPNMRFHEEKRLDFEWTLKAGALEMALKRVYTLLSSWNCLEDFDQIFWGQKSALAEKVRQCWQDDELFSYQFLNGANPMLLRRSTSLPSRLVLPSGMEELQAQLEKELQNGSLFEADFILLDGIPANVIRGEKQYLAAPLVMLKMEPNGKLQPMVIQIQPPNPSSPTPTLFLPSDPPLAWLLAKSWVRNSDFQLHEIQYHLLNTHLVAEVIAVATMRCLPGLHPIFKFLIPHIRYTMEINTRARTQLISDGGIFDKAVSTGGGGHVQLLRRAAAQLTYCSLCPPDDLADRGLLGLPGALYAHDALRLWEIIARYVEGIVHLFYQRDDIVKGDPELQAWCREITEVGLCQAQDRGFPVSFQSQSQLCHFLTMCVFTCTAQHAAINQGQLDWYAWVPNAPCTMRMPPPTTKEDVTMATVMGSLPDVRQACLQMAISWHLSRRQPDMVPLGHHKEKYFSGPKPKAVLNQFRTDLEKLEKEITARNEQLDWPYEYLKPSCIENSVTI

In all, about 580,000 compounds went through this assay and about 6,100 (1.1%) were called active. This list was built around the results that the source calls inconclusive (neither active nor inactive); the mix of calls is not that of the screen. Calls follow the shape of the dose curve; as a rule, active = well fitted inhibition curve with a large enough effect; inconclusive = small, poorly fitted or top-dose-only effect, or another doubt; inactive = no such curve, though single readings can be large or run the other way. Potencies of inconclusive entries are doubtful fits and often do not repeat.
Each compound was assayed against Polyunsaturated fatty acid lipoxygenase ALOX12 (Homo sapiens) (UniProt P18054) (assay: Primary qHTS assay for inhibitors of human arachidonate 12S-lipoxygenase (ALOX12): Round 2). Conditions: purified 12hLO, xylenol orange hydroperoxide absorbance; series mostly up to 108 µM.
In short: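 Purified human 12hLO (150 nM final) in 25 mM Hepes, 0.01% Triton X-100, pH 7.0 was preincubated 15 min at room temperature with compound. Then 40 uM arachidonic acid was added, 30 min. Hydroperoxide was read by Fe-XO absorbance ratio 573/405 nm.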
With `O=C1CCCC2=C1C(c1cccc(Oc3ccccc3)c1)c1c([nH]n(-c3ccccc3)c1=O)N2` (stereo not drawn) the Potency was inconclusive: 50.1 µM [inhibitor, partial curve, poor fit]. `Cc1ccc(Cl)cc1NC(=O)CCNC(=O)CCC(=O)c1cccs1` was tested, and the Potency was inconclusive: 25.1 µM [inhibitor, partial curve, poor fit]. With `CCCC1=NN(C(=O)CSCc2ccccc2Cl)C(O)(C(F)(F)F)C1` (stereo not drawn) the Potency was “inactive”. In the case of `O=C(NCCCn1ccnc1)c1cc(-c2ccc(Cl)cc2)nc2ccccc12`, the Potency is reported as “inactive”. With `COc1ccc(S(=O)(=O)Nc2c(C)nn(C)c2C)cc1Br` the Potency was “inactive”. In the case of `COc1ccc(C/C(C#N)=C\Nc2cccc(C(F)(F)F)c2)cc1`, the Potency is reported as inconclusive: 50.1 µM [inhibitor, partial curve, poor fit]. `Cc1ccn(C(CC(=O)c2ccc(Br)cc2)C(=O)O)n1` (stereo not drawn) was tested, and the Potency was inconclusive: 70.8 µM [inhibitor, partial curve, poor fit]. With `CNC(=S)NCc1ccc2[nH]c(C)cc2c1` the Potency was inconclusive: 28.2 µM [inhibitor, partial curve]. `CCC(Sc1nc(C)cc(=O)[nH]1)C(=O)Nc1nnc(C)s1` (stereo not drawn) was tested, and the Potency was inconclusive: 44.7 µM [inhibitor, partial curve, poor fit]. With `O=C(Cc1ccccc1)NN1C(=O)c2ccccc2C1=O` the Potency was inconclusive: 0.316 µM [inhibitor, full curve, poor fit]. For `COc1ccccc1NC(=O)CSc1ncc(CO)n1Cc1ccc(F)cc1`, the Potency was “inactive”. `CC(C)(C)c1ccc(C(=O)NC(=S)NNC(=O)COc2ccccc2)cc1` was tested, and the Potency was active: 31.6 µM. `COc1ccc(/C=C/C2=Nc3ccccc3NC(C)(C)C2)cc1OC` was tested, and the Potency was inconclusive: 44.7 µM [inhibitor, partial curve, poor fit]. For `COc1ccccc1Oc1coc2cc(OC(=O)c3ccc(F)cc3)ccc2c1=O`, the Potency was “inactive”. With `Cn1c(=O)c2c(-c3ccccc3)n(-c3cc([N+](=O)[O-])ccc3N)cc2n(C)c1=O` the Potency was inconclusive: 70.8 µM [inhibitor, partial curve, poor fit]. `COc1cc(C(=O)Oc2c(OC)cccc2OC)ccc1OC(F)F` was tested, and the Potency was inconclusive: 63.1 µM [inhibitor, partial curve, poor fit]. With `O=C(Cc1ccc(F)cc1)Nc1nc(-c2ccc(F)cc2)cs1` the Potency was “inactive”. For `Cc1cccc(C)c1OCc1n[nH]c(=S)n1N`, the Potency was inconclusive: 35.5 µM [inhibitor, partial curve, poor fit]. `CCOCCCn1c(SCc2nc3ccccc3s2)nc2ccccc2c1=O` was tested, and the Potency was “inactive”. `O=C(CSc1nnnn1C1CCCCC1)Nc1cccc(CN2CCSCC2)c1` was tested, and the Potency was inconclusive: 7.08 µM [inhibitor, partial curve, poor fit]. In the case of `O=C(O)c1cc(Cl)ccc1-c1ccc(/C=C/c2cc(C(F)(F)F)[nH]c(=O)n2)o1`, the Potency is reported as inconclusive: 14.1 µM [inhibitor, full curve, poor fit]. `Cc1n[nH]c(C)c1C(N)C(=O)NCc1scnc1-c1ccccc1` (stereo not drawn) was tested, and the Potency was “inactive”. `CC(C)c1ccc(-c2cc(C3CC3)nc(N)c2C#N)cc1` was tested, and the Potency was inconclusive: 126 µM [inhibitor, single point]. For `Cc1cc2ccccc2c(=O)n1CC(=O)N1CCN(c2cccc(Cl)c2)CC1`, the Potency was “inactive”. For `COc1ccc(N(CC(O)CN2CCCCC2)S(=O)(=O)c2ccc(C)cc2)cc1` (stereo not drawn), the Potency was inconclusive: 89.1 µM [inhibitor, single point]. With `Cc1cc(-c2ccccc2)nc2cc(C(=O)Nc3ccc(Cl)c(Cl)c3)nn12` the Potency was inconclusive: 112 µM [inhibitor, partial curve, poor fit]. `C/C(CC1(O)C(=O)N(Cc2ccccc2)c2ccccc21)=N\O` (stereo not drawn) was tested, and the Potency was inconclusive: 44.7 µM [inhibitor, partial curve, poor fit]. With `Cc1ccc(-c2nc(C#N)c(N3CCOCC3)o2)cc1` the Potency was inconclusive: 17.8 µM [inhibitor, single point]. For `COc1ccc(OC)c(NC(=O)c2cc(=O)[nH]c3ccccc23)c1`, the Potency was inconclusive: 50.1 µM [inhibitor, partial curve, poor fit]. For `Cc1ccc(NC(=S)N/N=C/c2c(Cl)cccc2Cl)c(C)c1`, the Potency was inconclusive: 39.8 µM [inhibitor, partial curve, poor fit]. With `COc1ccc(C(=O)CNc2ccccc2Br)cc1` the Potency was “inactive”. For `O=c1c2ccccc2nc(/C=C/c2cccnc2)n1Cc1ccccc1`, the Potency was inconclusive: 44.7 µM [inhibitor, partial curve, poor fit]. In the case of `CCN(CC)Cc1ccc2cc(COC(=O)Nc3ccc(C(=O)NO)cc3)ccc2c1`, the Potency is reported as active: 15.3 µM. With `OCCNc1nc(Nc2ccc(Br)cc2)nc2ccccc12` the Potency was inconclusive: 44.7 µM [inhibitor, partial curve, poor fit]. In the case of `Cc1noc(C)c1CSc1nnc(-c2ccccc2)n1N`, the Potency is reported as inconclusive: 44.7 µM [inhibitor, partial curve, poor fit]. With `N#Cc1cn(CC(=O)Nc2ccc(Cl)c(Cl)c2)c2ccccc12` the Potency was inconclusive: 2.82 µM [inhibitor, full curve, poor fit]. In the case of `CC(C)OCCCNC(=O)Cn1ccc2ccc(Cl)cc21`, the Potency is reported as inconclusive: 63.1 µM [inhibitor, single point]. For `Cc1cccc(C(=O)NC(=S)NNC(=O)COc2ccc(Cl)cc2)c1`, the Potency was active: 35.5 µM. In the case of `O=C(O)C1(c2ccc(Br)cc2)CCC1`, the Potency is reported as inconclusive: 35.5 µM [inhibitor, single point]. For `CC(=O)C1=C(c2cccc([N+](=O)[O-])c2)N(C(C)=O)n2c(C)nnc2S1`, the Potency was “inactive”. In the case of `Cc1ccc(CN(C)C(=O)c2cc3ccc(OC(F)(F)F)cc3[nH]2)o1`, the Potency is reported as “inactive”. In the case of `COc1ccc(S(=O)(=O)Nc2c(C(=O)O)[nH]c3ccc(OC)cc23)c(OC)c1`, the Potency is reported as inconclusive: 35.5 µM [inhibitor, partial curve, poor fit]. `O=C(CSC1=NS(=O)(=O)c2ccccc2N1)Nc1ccccc1F` was tested, and the Potency was inconclusive: 44.7 µM [inhibitor, partial curve, poor fit].
Potency is read from the fitted curve at half-maximal effect.
